## Library screen at single concentrations

Sequences of proteins named here, by UniProt entry; tags and fusion partners are left off. Residues count along the entry.
UniProt I6X8D2, whole entry: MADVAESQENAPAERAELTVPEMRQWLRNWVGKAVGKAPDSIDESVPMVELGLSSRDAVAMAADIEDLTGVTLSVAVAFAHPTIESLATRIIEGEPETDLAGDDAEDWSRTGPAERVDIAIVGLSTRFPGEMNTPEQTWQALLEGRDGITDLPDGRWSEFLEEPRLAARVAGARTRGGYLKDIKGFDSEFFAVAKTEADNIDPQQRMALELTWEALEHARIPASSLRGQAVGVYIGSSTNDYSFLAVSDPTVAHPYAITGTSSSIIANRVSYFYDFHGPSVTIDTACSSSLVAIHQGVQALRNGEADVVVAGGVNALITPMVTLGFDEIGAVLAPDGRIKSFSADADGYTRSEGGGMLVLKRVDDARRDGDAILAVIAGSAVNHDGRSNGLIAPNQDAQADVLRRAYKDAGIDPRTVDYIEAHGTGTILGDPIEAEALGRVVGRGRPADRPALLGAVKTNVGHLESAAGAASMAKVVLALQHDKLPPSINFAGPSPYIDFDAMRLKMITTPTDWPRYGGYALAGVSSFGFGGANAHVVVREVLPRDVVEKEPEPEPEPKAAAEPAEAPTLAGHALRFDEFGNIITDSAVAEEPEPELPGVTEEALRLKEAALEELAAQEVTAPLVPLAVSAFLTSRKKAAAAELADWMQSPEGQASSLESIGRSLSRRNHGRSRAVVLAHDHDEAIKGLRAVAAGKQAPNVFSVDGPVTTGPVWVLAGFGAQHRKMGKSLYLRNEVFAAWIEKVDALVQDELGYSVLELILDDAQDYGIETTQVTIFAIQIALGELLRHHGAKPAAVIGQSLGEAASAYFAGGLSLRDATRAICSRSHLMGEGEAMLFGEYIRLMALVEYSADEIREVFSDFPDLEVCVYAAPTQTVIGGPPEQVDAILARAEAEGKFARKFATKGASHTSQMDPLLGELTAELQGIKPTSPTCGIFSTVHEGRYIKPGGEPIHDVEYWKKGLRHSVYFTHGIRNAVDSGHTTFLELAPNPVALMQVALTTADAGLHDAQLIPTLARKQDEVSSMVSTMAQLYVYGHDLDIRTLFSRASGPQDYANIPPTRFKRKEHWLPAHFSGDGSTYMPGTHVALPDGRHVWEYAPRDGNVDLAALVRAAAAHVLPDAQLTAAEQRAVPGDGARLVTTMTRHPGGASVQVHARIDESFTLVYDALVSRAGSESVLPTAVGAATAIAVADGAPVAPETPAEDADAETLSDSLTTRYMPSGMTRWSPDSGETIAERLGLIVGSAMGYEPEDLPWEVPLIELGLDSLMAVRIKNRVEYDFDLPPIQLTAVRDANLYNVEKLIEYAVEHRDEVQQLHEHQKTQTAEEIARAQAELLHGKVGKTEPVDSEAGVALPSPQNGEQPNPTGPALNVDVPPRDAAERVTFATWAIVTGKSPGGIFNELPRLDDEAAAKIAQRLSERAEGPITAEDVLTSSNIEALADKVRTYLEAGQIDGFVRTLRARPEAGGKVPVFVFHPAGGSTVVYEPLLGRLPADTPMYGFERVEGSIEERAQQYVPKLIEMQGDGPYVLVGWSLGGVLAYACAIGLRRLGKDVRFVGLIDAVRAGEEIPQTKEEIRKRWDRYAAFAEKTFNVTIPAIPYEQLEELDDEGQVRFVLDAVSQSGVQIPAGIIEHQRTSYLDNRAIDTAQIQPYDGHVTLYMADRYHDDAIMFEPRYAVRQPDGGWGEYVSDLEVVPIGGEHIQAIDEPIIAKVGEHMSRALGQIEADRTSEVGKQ
UniProt Q4DA54, 1-478: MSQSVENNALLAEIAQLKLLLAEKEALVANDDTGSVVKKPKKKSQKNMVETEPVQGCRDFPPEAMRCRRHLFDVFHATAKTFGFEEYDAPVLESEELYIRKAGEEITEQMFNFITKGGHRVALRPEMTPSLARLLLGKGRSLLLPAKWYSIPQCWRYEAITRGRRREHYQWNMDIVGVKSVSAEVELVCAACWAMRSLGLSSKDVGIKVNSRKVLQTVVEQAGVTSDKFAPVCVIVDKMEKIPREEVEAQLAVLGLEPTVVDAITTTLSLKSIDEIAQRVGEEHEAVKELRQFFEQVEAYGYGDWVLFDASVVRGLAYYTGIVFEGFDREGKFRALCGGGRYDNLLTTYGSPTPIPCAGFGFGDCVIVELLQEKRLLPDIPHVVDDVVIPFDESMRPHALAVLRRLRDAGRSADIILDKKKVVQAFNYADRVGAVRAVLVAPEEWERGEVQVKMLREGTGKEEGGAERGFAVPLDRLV
UniProt A4I591, 1-473: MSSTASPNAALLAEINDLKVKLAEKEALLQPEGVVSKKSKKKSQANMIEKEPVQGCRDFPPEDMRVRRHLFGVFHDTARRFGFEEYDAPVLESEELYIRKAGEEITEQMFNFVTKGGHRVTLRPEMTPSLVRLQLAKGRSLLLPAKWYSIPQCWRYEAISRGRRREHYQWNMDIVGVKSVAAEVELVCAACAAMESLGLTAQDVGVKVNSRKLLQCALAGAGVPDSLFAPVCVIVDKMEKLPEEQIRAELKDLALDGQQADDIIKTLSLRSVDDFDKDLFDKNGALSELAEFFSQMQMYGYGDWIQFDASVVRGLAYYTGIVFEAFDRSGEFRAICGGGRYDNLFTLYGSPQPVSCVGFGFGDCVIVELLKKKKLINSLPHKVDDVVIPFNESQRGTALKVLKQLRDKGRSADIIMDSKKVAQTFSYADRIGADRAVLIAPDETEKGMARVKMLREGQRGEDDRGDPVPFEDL

Results are given as percent effect. How 0% and 100% were set is not recorded. Most values in the screen are low, and negative values occur. The compounds are a random part of those screened.

Pks13 thioesterase: 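Polyketide synthase Pks13, Mycobacterium tuberculosis (UniProt I6X8D2). Enzyme assay of the thioesterase domain of polyketide synthase 13; the read-out is not stated. Tested at 30 µM. The record gives no direction; the compounds picked for IC50 retests had high values, so higher reads as stronger inhibition. Size under these conditions: about 67,000 compounds, about 300 of them at 50% or above in at least one test.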
TcHisRS: 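Histidine-tRNA ligase, Trypanosoma cruzi CL Brener (UniProt Q4DA54). Enzyme assay of histidyl-tRNA synthetase; the read-out is not stated. Tested at 30 µM. Higher reads as stronger inhibition (inferred: compounds with an IC50 in retests scored well above the rest). Size under these conditions: about 69,000 compounds, about 31 of them at 50% or above in at least one test.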
LiHisRS: 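Histidine-tRNA ligase, Leishmania infantum (UniProt A4I591). Enzyme assay of histidyl-tRNA synthetase; the read-out is not stated. Tested at 30 µM. Direction is inferred from retests: higher values go with stronger inhibition. The assay is labelled LdHisRS but filed under L. infantum. About 69,000 compounds were tested under these conditions; 0.6% (about 410) showed 50% or more at least once.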

{"compound": "CCNc1cc2c(nn1)CCN(C(=O)c1cc3cccc(C)c3o1)C2", "Pks13 thioesterase": -43.13, "TcHisRS": 11.86, "LiHisRS": 25.86}
{"compound": "NC(=O)CNC1(c2ccc(Br)cc2)CCOCC1", "Pks13 thioesterase": -11.74, "TcHisRS": 6.637, "LiHisRS": 0.885}
{"compound": "Cc1nn2c(N3CCC(O)CC3)cc(-c3ccccc3)nc2c1C", "Pks13 thioesterase": -10.96, "TcHisRS": 2.479, "LiHisRS": 7.619}
{"compound": "CC(C)c1ccc(CC(=O)N2CCCC3(CN(C)C(=O)O3)C2)cc1", "stereo": "stereo not given", "Pks13 thioesterase": -12.6, "TcHisRS": 2.679, "LiHisRS": 1.77}
{"compound": "CC(C)CNC(=O)c1cc2c(s1)CCN2S(C)(=O)=O", "Pks13 thioesterase": -16.51, "TcHisRS": 5.714, "LiHisRS": -4.167}
{"compound": "CC(=O)NCC(=O)N1CCC2(CC1)CN(c1cccnc1)C(=O)CO2", "Pks13 thioesterase": -19.63, "TcHisRS": 1.657, "LiHisRS": 9.023}
{"compound": "CCOCC1COCCC12CCN(C(=O)CC1=CCCCC1)CC2", "stereo": "stereo not given", "Pks13 thioesterase": -28.23, "TcHisRS": 6.329, "LiHisRS": 12.07}
{"compound": "O=S(=O)(CCN1CCc2c(ncn2C2CC2)C1)c1ccccc1", "Pks13 thioesterase": -20.22, "TcHisRS": 6.215, "LiHisRS": 22.41}
{"compound": "CCN(Cc1ccoc1)C(=O)C1CCN(C(=O)OC(C)(C)C)C1", "stereo": "stereo not given", "Pks13 thioesterase": -14.66, "TcHisRS": 3.077, "LiHisRS": 16.33}
{"compound": "Cc1nc(C)n(C2CCCN(C(=O)c3cccc4cn[nH]c34)C2)n1", "stereo": "stereo not given", "Pks13 thioesterase": -10.37, "TcHisRS": 1.681, "LiHisRS": 6.612}
{"compound": "CCN(C(=O)NCCc1ccc(C)cc1C)C(C)CS(C)(=O)=O", "stereo": "stereo not given", "Pks13 thioesterase": -44.02, "TcHisRS": 5.263, "LiHisRS": 14.17}
{"compound": "COc1ccccc1C(C)(C)NC(=O)c1cc(NC(C)=O)ccc1F", "Pks13 thioesterase": -9.821, "TcHisRS": 6.878, "LiHisRS": 9.333}
{"compound": "CCN1CC(CN(C)Cc2nc(-c3ccc(F)cc3)oc2C)CC1=O", "stereo": "stereo not given", "Pks13 thioesterase": -7.437, "TcHisRS": 9, "LiHisRS": 6.122}
{"compound": "Cc1cc(NC(=O)CO)nn1-c1ccc(Cl)cc1Cl", "Pks13 thioesterase": -6.242, "TcHisRS": 2.646, "LiHisRS": 12}
{"compound": "Cc1cnc(N2C[C@@H]3[C@@H](C2)OCC(=O)N3CC(C)C)nc1", "Pks13 thioesterase": 11.2, "TcHisRS": 7.362, "LiHisRS": 3.419}
{"compound": "CC(C)[C@H]1CN(c2ccnc(N)n2)C[C@@H]1NC(=O)C1(C#N)CCOCC1", "Pks13 thioesterase": 8.21, "TcHisRS": 7.921, "LiHisRS": 0}
{"compound": "C1CCC(OCCN2CCN(CCOC3CCCCC3)CC2)CC1", "Pks13 thioesterase": -18.29, "TcHisRS": 0.4926, "LiHisRS": 3.947}
{"compound": "CC(=O)N1CCCN(C(=O)CCOc2ccc(C(C)C)cc2)CC1", "Pks13 thioesterase": -29.84, "TcHisRS": 1.775, "LiHisRS": 16.07}
{"compound": "Cc1ccoc1C(=O)N(CCN(C)C)Cc1ccccn1", "Pks13 thioesterase": 11.14, "TcHisRS": -12.35, "LiHisRS": 6.452}
{"compound": "O=C(NCCCn1cncn1)N1CCCCCC1", "Pks13 thioesterase": -25.88, "TcHisRS": 5.325, "LiHisRS": -14.29}
{"compound": "COc1ccc(CN2CCC3(CC2)CC(c2cccnc2)CO3)cc1", "stereo": "stereo not given", "Pks13 thioesterase": -10.34, "TcHisRS": -0.9346, "LiHisRS": 1.389}
{"compound": "NCC1CN(C(=O)c2cccc(-n3cccn3)c2)CCO1", "stereo": "stereo not given", "Pks13 thioesterase": -0.148, "TcHisRS": 5.056, "LiHisRS": 15.38}
{"compound": "CCS(=O)(=O)NC1CCc2c(ccc(=O)n2CC2CC2)C1", "stereo": "stereo not given", "Pks13 thioesterase": -1.779, "TcHisRS": 10.2, "LiHisRS": 11}
{"compound": "CCCc1ccc(S(=O)(=O)NC(=O)CCc2cscn2)cc1", "Pks13 thioesterase": -17.49, "TcHisRS": 4.386, "LiHisRS": 21.24}
{"compound": "CNS(=O)(=O)c1cccc(S(=O)(=O)Nc2ncc(C)s2)c1", "Pks13 thioesterase": -45.51, "TcHisRS": 12.1, "LiHisRS": 35.21}
{"compound": "CCn1ccnc1CN1CCCC(N(C)CCc2ccccc2)C1", "stereo": "stereo not given", "Pks13 thioesterase": 1.56, "TcHisRS": -0.5025, "LiHisRS": 8.8}
{"compound": "CN(Cc1ccc(F)cc1)C(=O)Nc1cccnc1N1CCCC1", "Pks13 thioesterase": -11.7, "TcHisRS": 2.89, "LiHisRS": 6.14}
{"compound": "CN(C)Cc1nnc(C2CCCN(c3nc(C(N)=O)cs3)C2)n1C", "stereo": "stereo not given", "Pks13 thioesterase": -9.56, "TcHisRS": 5.042, "LiHisRS": 11.57}
{"compound": "Cc1cnn(C2CN(CCOc3ccccc3C#N)C2)c1", "Pks13 thioesterase": -19.96, "TcHisRS": 0, "LiHisRS": 10.62}
{"compound": "O=C(NCCc1ccc(F)cc1)C1CN(C(=O)Cn2cncn2)C1", "Pks13 thioesterase": -4.595, "TcHisRS": -4.887, "LiHisRS": 5.674}
{"compound": "CN(Cc1ccc2c(c1)OCCO2)C(=O)Cn1ccccc1=O", "Pks13 thioesterase": -8.101, "TcHisRS": 2.642, "LiHisRS": 17.57}
{"compound": "CCn1nc2c(cc1=O)CN(Cc1nc(-c3cccnc3)no1)CC2", "Pks13 thioesterase": -14.42, "TcHisRS": 7.647, "LiHisRS": 14.68}
{"compound": "CC(C)c1nnc(CN2CC(n3cccn3)Cc3ccccc32)o1", "stereo": "stereo not given", "Pks13 thioesterase": -19.53, "TcHisRS": 7.937, "LiHisRS": 9.333}
{"compound": "CCn1cc(CN2CCc3nc(-c4ccccn4)nc(O)c3C2)cn1", "Pks13 thioesterase": 16.19, "TcHisRS": 0, "LiHisRS": 11.46}

Repeated from the top, 4 entries:

Compound	Pks13 thioesterase	TcHisRS	LiHisRS
CCNc1cc2c(nn1)CCN(C(=O)c1cc3cccc(C)c3o1)C2	-43.13	11.86	25.86
NC(=O)CNC1(c2ccc(Br)cc2)CCOCC1	-11.74	6.637	0.885
Cc1nn2c(N3CCC(O)CC3)cc(-c3ccccc3)nc2c1C	-10.96	2.479	7.619
CC(C)c1ccc(CC(=O)N2CCCC3(CN(C)C(=O)O3)C2)cc1 (stereo not given)	-12.6	2.679	1.77

Source: ChEMBL document CHEMBL3988442, “University of Dundee, Small-Polar-MMV Screening Library” (2021).